Laboratory results from the supplement of paper PMC4604168 (melanoma cell lines).
Some of the results follow. Many values rest on one well or one pass, so single values are uncertain.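 Imaging used 1,536-well plates; nuclei positive for cleaved PARP by antibody were divided by total DNA-stained nuclei to yield the apoptosis fraction. Doses for screening kept most cells viable, and cell lines differ markedly in resting and induced cleaved-PARP levels.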

Key:
Assay in all cases: cleaved PARP positive nuclei fraction relative to DMSO control; melanoma cells; higher = more apoptosis
Settings in all cases: library dose: low library concentration; 72 h
WM115 = system: WM115
WM1716 = system: WM1716
WM1745 = system: WM1745
WM3526 = system: WM3526
WM3619 = system: WM3619
WM451Lu = system: WM451Lu

Row | SMILES | cleaved PARP positive nuclei fraction (WM115) [%] | cleaved PARP positive nuclei fraction (WM1716) [%] | cleaved PARP positive nuclei fraction (WM1745) [%] | cleaved PARP positive nuclei fraction (WM3526) [%] | cleaved PARP positive nuclei fraction (WM3619) [%] | cleaved PARP positive nuclei fraction (WM451Lu) [%]
1 | C[As](C)SC[C@H](NC(=O)CC[C@H](N)C(=O)O)C(=O)NCC(=O)O [Darinaparsin] + Nc1cccc2c1CN(C1CCC(=O)NC1=O)C2=O [lenalidomide] (first compound 0.4 µM, partner dose 1 µM) | 188 | 126 | 97.5 | 40 | 85.5 | 77.8
2 | CC[C@]1(O)C[C@H]2CN(CCc3c([nH]c4ccccc34)[C@@](C(=O)OC)(c3cc4c(cc3OC)N(C=O)[C@H]3[C@@](O)(C(=O)OC)[C@H](OC(C)=O)[C@]5(CC)C=CCN6CC[C@]43[C@@H]65)C2)C1 [vincristine] + Cc1cc(SCc2sc(-c3ccc(C(F)(F)F)c(F)c3)nc2C)ccc1OCC(=O)O [GW0742] (first compound 0.0001 µM, partner dose 2 µM) | 355 | 76.6 | 102 | 85 | 158 | 30.4
3 | N.N.[Cl][Pt][Cl] [cisplatin] + O=C(Nc1cccc(Cl)c1)Nc1ncc(CCNc2ncnc3ccsc23)s1 [SNS314] (first compound 1.6 µM, partner dose 0.0008 µM) | 221 | 66.2 | 89.4 | 36.8 | 119 | 186
4 | C[C@]12O[C@H](C[C@]1(O)CO)n1c3ccccc3c3c4c(c5c6ccccc6n2c5c31)CNC4=O [Lestaurtinib] + O=C(O)c1ccc2c(c1)nc(Nc1cccc(Cl)c1)c1ccncc12 [CX4945] (first compound 0.004 µM, partner dose 0.4 µM) | 206 | 266 | 100 | 99.2 | 91.7 | 49.5
5 | N.N.[Cl][Pt][Cl] [cisplatin] + C=C(c1ccc(C(=O)O)cc1)c1cc2c(cc1C)C(C)(C)CCC2(C)C [Bexarotene] (first compound 1.6 µM, partner dose 2 µM) | 111 | 116 | 86.3 | 47.5 | 77.3 | 65.4
6 | Cc1cc(SCc2sc(-c3ccc(C(F)(F)F)c(F)c3)nc2C)ccc1OCC(=O)O + Cn1cc(/C=C2\C(=O)Nc3cccnc32)c2ccccc21 [GW441756] (first compound 2 µM, partner dose 0.4 µM) | 147 | 44.5 | 111 | 150 | 80.1 | 70.3
7 | C[C@]12O[C@H](C[C@]1(O)CO)n1c3ccccc3c3c4c(c5c6ccccc6n2c5c31)CNC4=O [Lestaurtinib] + CCCCCCCCCCCC1=C(O)C(=O)C=C(O)C1=O [Embelin] (first compound 0.004 µM, partner dose 1.2 µM) | 25.6 | 45.6 | 91.6 | 133 | 120 | 141
8 | Cc1cc(SCc2sc(-c3ccc(C(F)(F)F)c(F)c3)nc2C)ccc1OCC(=O)O + CC(C)CCN1c2nc(Nc3cc(F)c(O)c(F)c3)ncc2N(C)C(=O)C1C [BID1870] (first compound 2 µM, partner dose 0.2 µM) | 79.2 | 113 | 120 | 63.4 | 71.4 | 242
9 | Cn1cc(C2=C(c3cn(C4CCN(Cc5ccccn5)CC4)c4ccccc34)C(=O)NC2=O)c2ccccc21 [Enzastaurin] + CS(=O)(=O)CCNCc1ccc(-c2ccc3ncnc(Nc4ccc(OCc5cccc(F)c5)c(Cl)c4)c3c2)o1 [lapatinib] (first compound 0.8 µM, partner dose 0.8 µM) | 44.3 | 28.5 | 109 | 87 | 103 | 267
10 | CS(=O)(=O)c1ccc(C(=O)Nc2ccc(Cl)c(-c3ccccn3)c2)c(Cl)c1 [vismodegib] + O=C(Oc1ccc([N+](=O)[O-])cc1)N1CCC(C(O)(c2ccc3c(c2)OCO3)c2ccc3c(c2)OCO3)CC1 [JZL184] (first compound 1 µM, partner dose 1 µM) | 181 | 26.7 | 76.6 | 87.5 | 186 | 69.5
11 | Cc1cn(-c2cc(NC(=O)c3ccc(C)c(Nc4nccc(-c5cccnc5)n4)c3)cc(C(F)(F)F)c2)cn1 [nilotinib] + Cn1cc(C2=C(c3cn(C4CCN(Cc5ccccn5)CC4)c4ccccc34)C(=O)NC2=O)c2ccccc21 [Enzastaurin] (first compound 0.2 µM, partner dose 0.8 µM) | 48.4 | 338 | 105 | 45.3 | 119 | 147
12 | C[C@]12O[C@H](C[C@]1(O)CO)n1c3ccccc3c3c4c(c5c6ccccc6n2c5c31)CNC4=O [Lestaurtinib] + CN(c1ncccc1CNc1nc(Nc2ccc3c(c2)CC(=O)N3)ncc1C(F)(F)F)S(C)(=O)=O [PF562271] (first compound 0.004 µM, partner dose 0.08 µM) | 150 | 72.8 | 98.6 | 189 | 101 | 34.6
13 | Cn1cc(C2=C(c3cn(C4CCN(Cc5ccccn5)CC4)c4ccccc34)C(=O)NC2=O)c2ccccc21 [Enzastaurin] + c1cc(-c2cnn3cc(-c4ccc(OCCN5CCCCC5)cc4)cnc23)ccn1 [Dorsomorphin] (first compound 0.8 µM, partner dose 0.4 µM) | 47.9 | 89.6 | 122 | 112 | 107 | 57.4

Copied from the list.
Value for N.N.[Cl][Pt][Cl] [cisplatin] + C=C(c1ccc(C(=O)O)cc1)c1cc2c(cc1C)C(C)(C)CCC2(C)C [Bexarotene] (first compound 1.6 µM, partner dose 2 µM) under cleaved PARP positive nuclei fraction (WM115) [%]: 111
Value for Cn1cc(C2=C(c3cn(C4CCN(Cc5ccccn5)CC4)c4ccccc34)C(=O)NC2=O)c2ccccc21 [Enzastaurin] + c1cc(-c2cnn3cc(-c4ccc(OCCN5CCCCC5)cc4)cnc23)ccn1 [Dorsomorphin] (first compound 0.8 µM, partner dose 0.4 µM) under cleaved PARP positive nuclei fraction (WM451Lu) [%]: 57.4
